From the supplement of paper PMC10849652
The list shows a part of the results.

By UniProt entry, the sequences of proteins in these tests, tags left out. Where a name states a change or a piece, a line headed by the entry shows the natural chain unless it says otherwise.
UniProt Q9BTK6, whole entry, looked up: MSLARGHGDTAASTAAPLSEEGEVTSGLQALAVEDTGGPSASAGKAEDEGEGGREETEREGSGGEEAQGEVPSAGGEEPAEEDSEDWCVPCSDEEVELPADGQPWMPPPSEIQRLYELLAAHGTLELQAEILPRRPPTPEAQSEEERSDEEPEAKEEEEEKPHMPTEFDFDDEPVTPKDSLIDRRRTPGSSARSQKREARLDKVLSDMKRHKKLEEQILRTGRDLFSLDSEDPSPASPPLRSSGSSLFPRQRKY
UniProt Q8WZ82: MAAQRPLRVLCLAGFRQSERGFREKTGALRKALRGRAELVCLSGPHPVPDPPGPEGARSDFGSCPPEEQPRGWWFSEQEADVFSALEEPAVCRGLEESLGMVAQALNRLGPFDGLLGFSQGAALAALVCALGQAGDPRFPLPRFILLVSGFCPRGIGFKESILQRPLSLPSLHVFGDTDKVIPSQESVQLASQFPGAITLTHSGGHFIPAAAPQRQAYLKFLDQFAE
UniProt Q9H6K4: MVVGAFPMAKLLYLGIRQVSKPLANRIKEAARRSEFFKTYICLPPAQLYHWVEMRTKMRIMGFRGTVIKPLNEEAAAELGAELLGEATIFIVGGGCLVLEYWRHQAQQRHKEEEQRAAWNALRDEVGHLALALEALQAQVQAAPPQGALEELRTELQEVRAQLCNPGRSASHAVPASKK
UniProt P04181: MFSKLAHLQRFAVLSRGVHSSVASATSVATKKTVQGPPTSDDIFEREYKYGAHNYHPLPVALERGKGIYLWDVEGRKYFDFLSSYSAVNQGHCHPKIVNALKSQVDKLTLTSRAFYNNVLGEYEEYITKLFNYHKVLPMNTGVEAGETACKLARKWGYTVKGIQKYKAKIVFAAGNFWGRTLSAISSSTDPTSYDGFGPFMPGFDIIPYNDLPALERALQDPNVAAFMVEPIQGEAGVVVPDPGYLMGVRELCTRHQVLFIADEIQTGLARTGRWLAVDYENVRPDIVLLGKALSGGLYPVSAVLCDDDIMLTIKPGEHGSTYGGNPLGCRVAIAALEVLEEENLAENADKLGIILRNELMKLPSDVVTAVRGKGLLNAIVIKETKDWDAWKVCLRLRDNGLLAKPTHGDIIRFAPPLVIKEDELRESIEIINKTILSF
UniProt Q9BXS6: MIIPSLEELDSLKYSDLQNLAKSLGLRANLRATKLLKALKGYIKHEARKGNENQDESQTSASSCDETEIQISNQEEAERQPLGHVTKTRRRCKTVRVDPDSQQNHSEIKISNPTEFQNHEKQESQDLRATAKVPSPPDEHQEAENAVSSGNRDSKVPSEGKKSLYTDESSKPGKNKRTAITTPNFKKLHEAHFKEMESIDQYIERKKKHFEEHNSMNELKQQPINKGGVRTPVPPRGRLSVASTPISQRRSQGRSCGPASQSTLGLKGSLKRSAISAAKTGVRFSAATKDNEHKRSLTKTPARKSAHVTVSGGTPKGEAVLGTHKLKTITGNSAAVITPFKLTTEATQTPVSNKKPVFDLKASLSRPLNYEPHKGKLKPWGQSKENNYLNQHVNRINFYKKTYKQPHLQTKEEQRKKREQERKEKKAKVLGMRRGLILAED
UniProt Q6VY07, whole entry, looked up: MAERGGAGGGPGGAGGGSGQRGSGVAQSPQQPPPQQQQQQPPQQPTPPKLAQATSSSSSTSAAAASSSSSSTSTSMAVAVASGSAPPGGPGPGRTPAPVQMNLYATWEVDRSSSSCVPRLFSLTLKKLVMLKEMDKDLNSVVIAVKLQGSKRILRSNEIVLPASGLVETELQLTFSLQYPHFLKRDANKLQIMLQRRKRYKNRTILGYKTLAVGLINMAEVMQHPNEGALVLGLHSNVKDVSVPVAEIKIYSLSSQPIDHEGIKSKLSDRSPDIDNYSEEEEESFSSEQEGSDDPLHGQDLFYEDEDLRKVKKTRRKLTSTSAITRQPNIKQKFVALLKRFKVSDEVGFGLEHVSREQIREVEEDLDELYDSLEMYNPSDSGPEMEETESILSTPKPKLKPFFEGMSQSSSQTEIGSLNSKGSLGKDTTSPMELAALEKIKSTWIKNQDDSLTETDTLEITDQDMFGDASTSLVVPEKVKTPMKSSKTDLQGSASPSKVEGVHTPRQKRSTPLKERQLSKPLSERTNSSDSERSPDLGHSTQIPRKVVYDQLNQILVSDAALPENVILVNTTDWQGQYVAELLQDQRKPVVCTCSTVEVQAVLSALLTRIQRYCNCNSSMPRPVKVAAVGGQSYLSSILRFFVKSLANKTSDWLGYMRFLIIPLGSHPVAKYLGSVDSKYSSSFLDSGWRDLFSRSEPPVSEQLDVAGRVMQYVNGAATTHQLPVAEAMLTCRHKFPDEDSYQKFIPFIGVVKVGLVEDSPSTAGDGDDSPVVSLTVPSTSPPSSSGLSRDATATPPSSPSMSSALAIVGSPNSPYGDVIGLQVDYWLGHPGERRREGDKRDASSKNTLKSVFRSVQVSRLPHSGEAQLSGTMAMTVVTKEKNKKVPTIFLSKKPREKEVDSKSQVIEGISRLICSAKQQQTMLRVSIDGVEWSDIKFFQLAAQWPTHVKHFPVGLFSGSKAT
UniProt Q02218: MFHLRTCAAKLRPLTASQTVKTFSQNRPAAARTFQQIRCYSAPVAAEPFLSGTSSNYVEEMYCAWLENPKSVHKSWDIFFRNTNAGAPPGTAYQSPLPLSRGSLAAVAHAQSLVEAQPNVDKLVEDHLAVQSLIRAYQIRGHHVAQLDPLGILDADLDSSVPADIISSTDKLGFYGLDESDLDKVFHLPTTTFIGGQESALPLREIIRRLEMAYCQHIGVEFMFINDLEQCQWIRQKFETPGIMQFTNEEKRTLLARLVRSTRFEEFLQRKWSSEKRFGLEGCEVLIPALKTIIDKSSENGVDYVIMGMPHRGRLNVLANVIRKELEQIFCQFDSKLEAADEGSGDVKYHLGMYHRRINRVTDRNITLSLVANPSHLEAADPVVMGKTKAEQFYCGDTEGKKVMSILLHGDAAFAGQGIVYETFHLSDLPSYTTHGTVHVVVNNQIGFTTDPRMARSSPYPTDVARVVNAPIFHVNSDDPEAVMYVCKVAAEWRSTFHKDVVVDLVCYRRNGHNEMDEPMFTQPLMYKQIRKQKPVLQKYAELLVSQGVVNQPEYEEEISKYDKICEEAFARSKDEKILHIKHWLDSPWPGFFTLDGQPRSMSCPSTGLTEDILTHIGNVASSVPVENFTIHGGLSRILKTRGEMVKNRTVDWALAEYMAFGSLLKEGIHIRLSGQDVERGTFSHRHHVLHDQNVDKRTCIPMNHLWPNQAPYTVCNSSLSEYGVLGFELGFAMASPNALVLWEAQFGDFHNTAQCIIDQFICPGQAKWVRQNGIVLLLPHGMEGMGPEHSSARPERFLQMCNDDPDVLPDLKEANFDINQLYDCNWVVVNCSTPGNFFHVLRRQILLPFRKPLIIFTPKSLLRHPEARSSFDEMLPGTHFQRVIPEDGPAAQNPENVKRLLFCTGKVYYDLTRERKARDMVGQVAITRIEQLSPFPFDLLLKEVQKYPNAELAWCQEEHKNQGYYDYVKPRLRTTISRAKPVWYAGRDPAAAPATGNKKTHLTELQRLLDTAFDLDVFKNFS
UniProt P11940, whole entry, looked up: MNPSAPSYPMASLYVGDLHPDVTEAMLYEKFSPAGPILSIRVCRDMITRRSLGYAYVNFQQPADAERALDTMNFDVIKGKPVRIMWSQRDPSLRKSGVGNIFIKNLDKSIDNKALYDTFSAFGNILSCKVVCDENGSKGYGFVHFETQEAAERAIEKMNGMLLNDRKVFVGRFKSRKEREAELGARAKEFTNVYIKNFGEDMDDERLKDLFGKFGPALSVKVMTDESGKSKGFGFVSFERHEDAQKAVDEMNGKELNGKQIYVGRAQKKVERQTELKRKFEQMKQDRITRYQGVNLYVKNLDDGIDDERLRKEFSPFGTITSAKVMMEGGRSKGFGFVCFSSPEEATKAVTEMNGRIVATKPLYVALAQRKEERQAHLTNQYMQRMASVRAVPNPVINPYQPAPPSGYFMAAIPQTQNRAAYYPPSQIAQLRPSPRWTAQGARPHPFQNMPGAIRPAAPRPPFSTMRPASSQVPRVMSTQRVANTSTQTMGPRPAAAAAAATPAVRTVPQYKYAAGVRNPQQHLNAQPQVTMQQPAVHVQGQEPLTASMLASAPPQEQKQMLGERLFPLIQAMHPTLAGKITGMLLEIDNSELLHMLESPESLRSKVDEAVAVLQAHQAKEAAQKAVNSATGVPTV
UniProt O15504: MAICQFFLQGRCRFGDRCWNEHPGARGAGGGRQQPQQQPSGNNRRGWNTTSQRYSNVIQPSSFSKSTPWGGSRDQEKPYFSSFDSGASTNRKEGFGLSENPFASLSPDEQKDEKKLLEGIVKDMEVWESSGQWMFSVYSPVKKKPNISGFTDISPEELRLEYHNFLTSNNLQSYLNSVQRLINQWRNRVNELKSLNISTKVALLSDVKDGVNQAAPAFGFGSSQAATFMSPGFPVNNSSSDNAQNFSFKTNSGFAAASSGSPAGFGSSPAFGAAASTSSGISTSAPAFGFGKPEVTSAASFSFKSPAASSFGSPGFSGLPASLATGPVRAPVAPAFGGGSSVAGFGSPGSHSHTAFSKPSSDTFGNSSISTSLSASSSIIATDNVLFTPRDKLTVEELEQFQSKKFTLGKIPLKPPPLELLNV
UniProt Q9BVL2: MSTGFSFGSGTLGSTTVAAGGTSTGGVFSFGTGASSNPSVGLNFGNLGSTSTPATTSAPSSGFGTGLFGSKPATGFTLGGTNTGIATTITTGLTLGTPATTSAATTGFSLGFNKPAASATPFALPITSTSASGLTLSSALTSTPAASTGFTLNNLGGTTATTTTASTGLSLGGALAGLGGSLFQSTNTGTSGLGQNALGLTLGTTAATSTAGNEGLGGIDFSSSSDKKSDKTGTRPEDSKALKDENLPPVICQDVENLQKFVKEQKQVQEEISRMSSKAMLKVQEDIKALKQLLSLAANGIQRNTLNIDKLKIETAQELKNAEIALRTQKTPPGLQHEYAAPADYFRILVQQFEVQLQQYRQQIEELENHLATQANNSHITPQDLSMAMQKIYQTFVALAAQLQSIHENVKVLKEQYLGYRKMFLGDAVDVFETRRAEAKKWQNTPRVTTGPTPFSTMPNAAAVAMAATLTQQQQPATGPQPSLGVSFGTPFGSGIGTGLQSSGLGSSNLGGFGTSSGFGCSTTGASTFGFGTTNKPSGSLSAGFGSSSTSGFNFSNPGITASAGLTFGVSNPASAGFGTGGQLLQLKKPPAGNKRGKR
UniProt O15294: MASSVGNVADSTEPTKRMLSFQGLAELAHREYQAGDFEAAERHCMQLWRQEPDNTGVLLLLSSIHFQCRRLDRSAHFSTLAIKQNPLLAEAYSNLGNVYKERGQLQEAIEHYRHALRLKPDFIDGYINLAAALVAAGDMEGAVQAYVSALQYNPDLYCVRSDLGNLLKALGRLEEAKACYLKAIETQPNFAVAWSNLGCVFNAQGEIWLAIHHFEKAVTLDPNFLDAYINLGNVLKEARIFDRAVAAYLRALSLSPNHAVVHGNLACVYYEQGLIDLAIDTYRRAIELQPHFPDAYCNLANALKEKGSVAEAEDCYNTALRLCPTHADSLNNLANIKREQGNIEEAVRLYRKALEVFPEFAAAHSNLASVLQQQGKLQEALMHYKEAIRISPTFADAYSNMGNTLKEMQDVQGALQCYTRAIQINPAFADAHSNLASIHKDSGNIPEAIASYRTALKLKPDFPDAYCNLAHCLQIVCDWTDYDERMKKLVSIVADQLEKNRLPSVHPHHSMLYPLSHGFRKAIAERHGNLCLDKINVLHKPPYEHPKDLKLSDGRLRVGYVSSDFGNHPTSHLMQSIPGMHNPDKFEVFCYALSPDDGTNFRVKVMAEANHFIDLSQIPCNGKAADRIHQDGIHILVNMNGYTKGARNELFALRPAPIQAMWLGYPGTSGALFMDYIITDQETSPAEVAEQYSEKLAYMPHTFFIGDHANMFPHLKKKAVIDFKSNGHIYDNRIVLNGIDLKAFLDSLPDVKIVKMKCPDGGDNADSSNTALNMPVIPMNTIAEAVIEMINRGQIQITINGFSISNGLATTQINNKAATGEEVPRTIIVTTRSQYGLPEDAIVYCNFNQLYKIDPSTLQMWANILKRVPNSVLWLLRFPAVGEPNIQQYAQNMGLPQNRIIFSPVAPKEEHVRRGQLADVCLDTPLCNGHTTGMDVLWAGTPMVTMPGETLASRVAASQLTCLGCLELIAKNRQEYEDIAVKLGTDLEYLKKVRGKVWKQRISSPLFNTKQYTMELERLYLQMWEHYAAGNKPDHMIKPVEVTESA
UniProt P00480: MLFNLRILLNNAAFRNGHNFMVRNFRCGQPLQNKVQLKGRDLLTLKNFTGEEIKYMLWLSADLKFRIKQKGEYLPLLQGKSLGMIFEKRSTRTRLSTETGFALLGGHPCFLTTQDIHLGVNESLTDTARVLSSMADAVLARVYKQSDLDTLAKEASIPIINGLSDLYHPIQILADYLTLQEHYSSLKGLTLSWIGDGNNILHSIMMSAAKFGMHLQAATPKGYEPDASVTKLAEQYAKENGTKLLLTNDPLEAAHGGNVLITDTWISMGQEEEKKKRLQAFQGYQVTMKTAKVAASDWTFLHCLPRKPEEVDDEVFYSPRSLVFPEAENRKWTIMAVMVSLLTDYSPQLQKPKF

Experiments:
Test in all cases: log2 fold change, soluble protein after heating vs DMSO (PISA); higher = thermal stabilisation; K562 lysate, 10 uM; active = over 0.2 and 3.5 SD of the protein, either way, in both replicates (recomputed)
ibrutinib = compound: C=CC(=O)N1CCC[C@@H](n2nc(-c3ccc(Oc4ccccc4)cc3)c3c(N)ncnc32)C1 [ibrutinib]
How it was run: (§1)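 Thermal stability, expressed as log-two fold change relative to solvent controls, is given from duplicates. Crude K562 extract in PBS pH 7.4 with 1 mM MgCl2, at 1 mg/mL protein, was treated with 10 μM compound for 30 min and heated in aliquots for 3 min across 48°C-58°C. After pooling, adjustment to 0.5% NP-40 at 4°C and centrifugation at 21,000xg for 90 min, supernatant protein was measured by TMTpro 16plex LC-MS/MS with channel sums equalised.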

[1] = compound: CC(=O)c1cnc2ccc(-c3cc(Cl)c(O)c(Cl)c3)nc2c1N[C@H]1CC[C@H](CN(C)C)CC1
How it was run: as §1

ralimetinib = compound: CC(C)(C)Cn1c(N)nc2ccc(-c3[nH]c(C(C)(C)C)nc3-c3ccc(F)cc3)nc21 [ralimetinib]
How it was run: as §1

[2] = compound: CC(C)(O)CC(=O)NCCn1ccc2ncnc(Nc3ccc(Oc4cccc(C(F)(F)F)c4)c(Cl)c3)c21
How it was run: as §1

[3] = compound: CC(C)C1=C2N=C(C=C(N2N=C1)NCC3=CC=CC=C3)NCCCCCCN
How it was run: as §1

[4] = compound: CC1=C(C(CC(=O)N1)C2=CC=C(C=C2)C(F)(F)F)C(=O)NC3=C(C=C4C(=C3)C=NN4)F
How it was run: as §1

[5] = compound: CC1=C(C2=C(C=C1)C(=O)C3=CC=CC=C3N2CCCN)C
How it was run: as §1

[6] = compound: CC1=C(C=C(C=C1)NC(=O)C2=CC(=CC=C2)C(C)(C)C#N)NC3=CC4=C(C=C3)N=CN(C4=O)C
How it was run: as §1

[7] = compound: CC1=C(C=C(C=C1)NC(=O)C2=CC(=CC=C2)N(C)C)NC(=O)C3=CC=C(C=C3)O
How it was run: as §1

[8] = compound: CC1=CC=C(C=C1)SC2=C3C=C(SC3=CN=C2)C(=O)N
How it was run: as §1

vemurafenib = compound: CCCS(=O)(=O)Nc1ccc(F)c(C(=O)c2c[nH]c3ncc(-c4ccc(Cl)cc4)cc23)c1F [vemurafenib]
How it was run: as §1

[9] = compound: CCCS(=O)(=O)Nc1ccc(F)c(C(=O)c2c[nH]c3ncc(Cl)cc23)c1F
How it was run: as §1

barasertib = compound: CCN(CCCOc1ccc2c(Nc3cc(CC(=O)Nc4cccc(F)c4)[nH]n3)ncnc2c1)CCOP(=O)(O)O [barasertib]
How it was run: as §1

[10] = compound: CC[C@@H]1C(=O)N(C)c2cnc(Nc3ccc(C(=O)NC4CCN(C)CC4)cc3OC)nc2N1C1CCCC1
How it was run: as §1

volasertib = compound: CC[C@@H]1C(=O)N(C)c2cnc(Nc3ccc(C(=O)N[C@H]4CC[C@H](N5CCN(CC6CC6)CC5)CC4)cc3OC)nc2N1C(C)C [volasertib]
How it was run: as §1

[11] = compound: CCn1c(C(=O)N(C2CC2)C2CC2)cc2c3c(ncn3C)c(Nc3cc(C)n(C)n3)nc21
How it was run: as §1

[12] = compound: CCn1cc(-c2ccnc3[nH]c(-c4cccc(CN(C)C)c4)cc23)c(-c2ccc(NC(=O)N(C)C)cc2)n1
How it was run: as §1

[13] = compound: CN1CCC(CNc2ccc3ncc(-c4cccc(OC(F)(F)F)c4)n3n2)CC1
How it was run: as §1

saracatinib = compound: CN1CCN(CCOc2cc(OC3CCOCC3)c3c(Nc4c(Cl)ccc5c4OCO5)ncnc3c2)CC1 [saracatinib]
How it was run: as §1

sotrastaurin = compound: CN1CCN(c2nc(C3=C(c4c[nH]c5ccccc45)C(=O)NC3=O)c3ccccc3n2)CC1 [sotrastaurin]
How it was run: as §1

Measured: log2 fold change

PAGR1 (UniProt Q9BTK6)
inactive: ibrutinib 0.022 | [1] 0.106 | ralimetinib 0.055 | [2] 0.054 | [3] 0.254 | [4] 0.029 | [5] 0.061 | [6] 0.008 | [7] -0.053 | [8] -0.113 | vemurafenib 0.043 | [9] 0.036 | barasertib -0.068 | [10] -0.002 | volasertib 0.048 | [11] -0.011 | [12] -0.047 | [13] -0.007 | saracatinib 0 | sotrastaurin 0.086

OVCA2 (UniProt Q8WZ82)
inactive: ibrutinib 0.105 | [1] 0.045 | ralimetinib -0.046 | [2] 0.108 | [3] -0.042 | [4] -0.037 | [5] 0.026 | [6] -0.077 | [7] 0.007 | [8] 0.005 | vemurafenib -0.103 | [9] 0.023 | barasertib -0.047 | [10] -0.078 | volasertib -0.001 | [11] 0.027 | [12] -0.018 | [13] 0.083 | saracatinib 0.084 | sotrastaurin 0.1

PARD3 (UniProt Q8TEW0)
inactive: ibrutinib 0.026 | [1] 0.134 | ralimetinib -0.017 | [2] -0.011 | [3] 0.001 | [4] 0.011 | [5] 0.006 | [6] 0.116 | [7] 0.01 | [8] -0.068 | vemurafenib 0.145 | [9] -0.017 | barasertib -0.123 | [10] -0.009 | volasertib -0.016 | [11] -0.032 | [12] -0.147 | [13] -0.08 | saracatinib 0.016 | sotrastaurin 0.004

2 successive entries already listed, quoted:
OVCA2 (UniProt Q8WZ82)
inactive: ibrutinib 0.105 | [1] 0.045 | ralimetinib -0.046 | [2] 0.108 | [3] -0.042 | [4] -0.037 | [5] 0.026 | [6] -0.077 | [7] 0.007 | [8] 0.005 | vemurafenib -0.103 | [9] 0.023 | barasertib -0.047 | [10] -0.078 | volasertib -0.001 | [11] 0.027 | [12] -0.018 | [13] 0.083 | saracatinib 0.084 | sotrastaurin 0.1

PARD3 (UniProt Q8TEW0)
inactive: ibrutinib 0.026 | [1] 0.134 | ralimetinib -0.017 | [2] -0.011 | [3] 0.001 | [4] 0.011 | [5] 0.006 | [6] 0.116 | [7] 0.01 | [8] -0.068 | vemurafenib 0.145 | [9] -0.017 | barasertib -0.123 | [10] -0.009 | volasertib -0.016 | [11] -0.032 | [12] -0.147 | [13] -0.08 | saracatinib 0.016 | sotrastaurin 0.004

Following part

OPA3 (UniProt Q9H6K4)
inactive: ibrutinib -0.014 | [1] 0.008 | ralimetinib 0.037 | [2] -0.053 | [3] -0.021 | [4] 0.08 | [5] -0.002 | [6] 0.05 | [7] 0.044 | [8] 0.086 | vemurafenib -0.052 | [9] 0.082 | barasertib 0.095 | [10] 0.026 | volasertib 0.063 | [11] -0.093 | [12] 0.05 | [13] -0.068 | saracatinib 0.01 | sotrastaurin -0.041

OAT (UniProt P04181)
inactive: ibrutinib -0.007 | [1] 0.013 | ralimetinib 0.009 | [2] 0.002 | [3] 0 | [4] -0.045 | [5] -0.018 | [6] -0.006 | [7] 0.034 | [8] -0.009 | vemurafenib 0.066 | [9] 0.003 | barasertib -0.012 | [10] -0.019 | volasertib -0.014 | [11] -0.006 | [12] -0.119 | [13] 0.014 | saracatinib -0.004 | sotrastaurin -0.024

NUSAP1 (UniProt Q9BXS6)
inactive: ibrutinib -0.003 | [1] -0.022 | ralimetinib 0.023 | [2] -0.014 | [3] -0.006 | [4] -0.02 | [5] -0.017 | [6] -0.004 | [7] 0.016 | [8] -0.023 | vemurafenib 0.001 | [9] 0.009 | barasertib -0.002 | [10] 0.073 | volasertib 0.004 | [11] -0.009 | [13] 0.189 | saracatinib 0.019 | sotrastaurin -0.001
active: [12] -0.399

PACS1 (UniProt Q6VY07)
inactive: ibrutinib 0.041 | [1] -0.011 | ralimetinib 0.012 | [2] -0.042 | [3] -0.039 | [4] -0.009 | [5] 0.011 | [6] -0.017 | [7] -0.02 | [8] 0.014 | vemurafenib 0.005 | [9] -0.033 | barasertib 0.033 | [10] 0.003 | volasertib 0.009 | [11] 0.02 | [12] -0.044 | [13] 0.022 | saracatinib 0.032 | sotrastaurin 0.016

OGDH (UniProt Q02218)
inactive: ibrutinib 0.016 | [1] 0 | ralimetinib -0.016 | [2] -0.025 | [3] -0.032 | [4] 0.032 | [5] 0.012 | [6] -0.026 | [7] 0.018 | [8] 0.013 | vemurafenib 0.062 | [9] 0.005 | barasertib 0.068 | [10] -0.056 | volasertib -0.049 | [11] 0.01 | [12] -0.045 | [13] -0.078 | saracatinib -0.022 | sotrastaurin 0.014

PABPC1 (UniProt P11940)
inactive: ibrutinib -0.002 | [1] 0.004 | ralimetinib -0.014 | [2] 0.002 | [3] -0.015 | [4] -0.028 | [5] 0.022 | [6] -0.054 | [7] 0.009 | [8] 0.024 | vemurafenib -0.027 | [9] -0.012 | barasertib 0.007 | [10] -0.075 | volasertib -0.018 | [11] 0.016 | [12] 0.13 | [13] -0.163 | saracatinib 0.013 | sotrastaurin 0.007

PACSIN3 (UniProt Q9UKS6)
inactive: ibrutinib 0.104 | [1] 0.134 | ralimetinib -0.04 | [2] -0.127 | [3] 0.083 | [4] 0.003 | [5] -0.029 | [6] 0.01 | [7] 0.002 | [8] 0.162 | vemurafenib -0.199 | [9] 0.012 | barasertib 0.269 | [10] -0.199 | volasertib -0.01 | [11] 0.007 | [12] -0.046 | [13] 0.079 | saracatinib -0.034 | sotrastaurin 0.004

NUP42 (UniProt O15504)
inactive: ibrutinib 0.027 | [1] 0.043 | ralimetinib -0.025 | [2] -0.069 | [3] -0.087 | [4] -0.017 | [5] -0.094 | [6] 0.063 | [7] -0.119 | [8] -0.013 | vemurafenib 0.087 | [9] 0.027 | barasertib 0.024 | [10] 0.05 | volasertib -0.013 | [11] 0.019 | [12] 0.177 | [13] -0.122 | saracatinib -0.026 | sotrastaurin -0.021

OSBPL8 (UniProt Q9BZF1)
inactive: ibrutinib -0.035 | [1] -0.028 | ralimetinib 0.017 | [2] -0.01 | [3] -0.031 | [4] -0.009 | [5] -0.039 | [6] -0.007 | [7] 0.037 | [8] -0.071 | vemurafenib 0.006 | [9] -0.017 | barasertib 0.057 | [10] 0.054 | volasertib -0.009 | [11] -0.013 | [12] 0.012 | [13] -0.1 | saracatinib -0.019 | sotrastaurin 0.025

NUP58 (UniProt Q9BVL2)
inactive: ibrutinib 0.004 | [1] 0 | ralimetinib -0.005 | [2] -0.047 | [3] -0.009 | [4] 0.052 | [5] 0.006 | [6] -0.058 | [7] -0.01 | [8] -0.022 | vemurafenib 0.014 | [9] -0.017 | barasertib 0.052 | [10] 0.094 | volasertib 0.024 | [11] 0.033 | [12] -0.107 | [13] 0.073 | saracatinib -0.018 | sotrastaurin 0

OGT (UniProt O15294)
inactive: ibrutinib -0.035 | [1] -0.024 | ralimetinib 0.021 | [2] 0.023 | [3] -0.007 | [4] -0.009 | [5] -0.026 | [6] -0.014 | [7] 0.032 | [8] -0.005 | vemurafenib 0.012 | [9] 0.015 | barasertib 0.031 | [10] -0.003 | volasertib -0.058 | [11] 0.036 | [12] -0.002 | [13] -0.021 | saracatinib 0.011 | sotrastaurin 0.018

OTC (UniProt P00480)
inactive: ibrutinib -0.089 | [1] 0.001 | ralimetinib 0.065 | [2] -0.18 | [3] 0.017 | [4] -0.055 | [5] 0.065 | [6] 0.156 | [7] -0.034 | [8] -0.004 | vemurafenib 0.072 | [9] -0.063 | barasertib 0.063 | [10] -0.246 | volasertib 0.018 | [11] -0.035 | [12] -1.43 | [13] 0.371 | saracatinib 0.012 | sotrastaurin 0.282
